This is an account of results in patent US20170240556A1, “BIFLUORODIOXALANE-AMINO-BENZIMIDAZOLE KINASE INHIBITORS FOR THE TREATMENT OF CANCER, AUTOIMMUNEINFLAMMATION AND CNS DISORDERS” (4SC DISCOVERY GMBH, priority 2012, published 2017).

Amino acid sequences for entries named in this document (tags omitted).
UniProt P48730, whole entry: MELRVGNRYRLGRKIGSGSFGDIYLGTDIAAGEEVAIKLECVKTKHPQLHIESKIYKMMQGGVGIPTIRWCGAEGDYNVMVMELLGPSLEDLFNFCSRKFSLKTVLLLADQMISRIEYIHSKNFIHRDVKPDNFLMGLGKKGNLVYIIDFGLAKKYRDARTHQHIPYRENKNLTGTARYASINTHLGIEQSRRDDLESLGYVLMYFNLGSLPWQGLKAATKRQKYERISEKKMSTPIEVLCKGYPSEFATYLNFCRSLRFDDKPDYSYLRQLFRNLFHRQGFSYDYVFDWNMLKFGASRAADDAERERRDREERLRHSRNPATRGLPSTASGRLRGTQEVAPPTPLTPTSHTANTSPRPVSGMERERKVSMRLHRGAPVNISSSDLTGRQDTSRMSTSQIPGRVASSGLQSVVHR
UniProt P49674, whole entry: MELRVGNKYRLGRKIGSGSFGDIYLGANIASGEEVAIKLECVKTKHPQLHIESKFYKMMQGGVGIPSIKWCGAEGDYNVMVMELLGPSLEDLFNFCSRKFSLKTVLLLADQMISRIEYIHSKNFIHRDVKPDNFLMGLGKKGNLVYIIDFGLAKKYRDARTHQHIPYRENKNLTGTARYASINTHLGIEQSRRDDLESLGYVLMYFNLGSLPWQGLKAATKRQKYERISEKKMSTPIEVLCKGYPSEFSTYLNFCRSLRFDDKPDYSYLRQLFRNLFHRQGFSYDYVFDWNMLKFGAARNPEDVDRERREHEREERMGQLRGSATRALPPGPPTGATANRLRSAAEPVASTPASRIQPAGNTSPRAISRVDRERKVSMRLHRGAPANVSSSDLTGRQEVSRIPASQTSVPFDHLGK

The structures appear in SMILES notation. pIC50: −log10 of the molar value. Structures were worked out from names or drawings and are uncertain.

Test [1] concerns Hedgehog signaling pathway. Nature of the test: Hedgehog reporter assay (Gli Reporter - NIH3T3 Cell Line). Type of test: cell-based. Particulars: read-out: HH Assay; Gli reporter NIH3T3 cells, murine SHH stimulation, 24 h.
The target of test [2] is Casein kinase 1 delta (CSKN1D) (Homo sapiens, UniProt P48730). Nature of the test: Casein kinase assay, CK1 delta. Type of test: biochemical. Particulars: read-out: CK1 delta Assay; recombinant CSKN1D 5 nM, ATP 10 μM.
For test [3], the target named is Casein kinase 1 epsilon (CSKN1E) (Homo sapiens, UniProt P49674). As to the kind of experiment: Casein kinase assay, CK1 epsilon. Type of test: biochemical. Particulars: read-out: CK1 epsilon Assay; recombinant CSKN1E 30 nM, ATP 10 μM.

On to `Cc1c(C(=O)Nc2nc3cc4c(cc3[nH]2)OC(F)(F)O4)cnn1-c1ccc(F)cc1`, for which the pIC50 in test [1] is 4.82 to 6.00; in test [2], > 6.70; in test [3], 6.00 to 6.70.
